# The whole screen tested about 220,000 compounds, of which about 770 (0.35%) were called active. Only results without a clear call are listed here; the source files them as inconclusive. Rule as the data show it: active = binding response below about 49% or above about 150%; inconclusive = no clear call, values can overlap the other calls; inactive = in between.
# Amino acid sequences for entries named in this document (tags omitted).
# UniProt P09471, whole entry: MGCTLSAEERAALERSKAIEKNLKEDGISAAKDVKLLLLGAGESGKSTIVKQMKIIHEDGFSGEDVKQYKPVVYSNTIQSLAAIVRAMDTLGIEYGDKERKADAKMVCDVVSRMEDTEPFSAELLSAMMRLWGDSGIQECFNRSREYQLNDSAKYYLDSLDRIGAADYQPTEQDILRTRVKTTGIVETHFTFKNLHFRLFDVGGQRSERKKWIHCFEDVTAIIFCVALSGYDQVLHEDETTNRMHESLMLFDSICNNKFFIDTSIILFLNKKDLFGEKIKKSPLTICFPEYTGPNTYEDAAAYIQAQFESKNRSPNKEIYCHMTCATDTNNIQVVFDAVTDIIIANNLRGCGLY
# Biological target: Guanine nucleotide-binding protein G(o) subunit alpha (Homo sapiens) (UniProt P09471)
# Assay: RGS7-Galphao binding modulators, primary screen, biochemical, multiplexed bead flow cytometry (AID 1439);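 also: fluorescent Galphao held in activated GDP-AlF4 state binding bead-coupled RGS7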
# Settings: at 10 µM, actives lie on both sides
row,SMILES,binding response (% of control)
1,Cc1ccc(OCC(C)C)c(CN(CCCl)CCCl)c1,inconclusive: 149%
2,CCOc1ccc(C)cc1CN(CCCl)CCCl,inconclusive: 98%
3,N#CC1(Nc2ccccc2)CCN(Cc2ccccc2)CC1,inconclusive: 164%
4,CN(C)c1cccc(C(=O)NCC2(N3CCCCC3)CCCCC2)c1,inconclusive: 88.5%
5,COc1cc(OC)cc(C(=O)NCC2(N3CCOCC3)CCCCC2)c1,inconclusive: 94%
6,CCCOc1ccc(C)cc1CN(CCCl)CCCl,inconclusive: 315%

# — PubChem BioAssay AID1439 (NMMLSC, 2008)
